Reference: paper PMC4805166 (PLoS ONE, 2016)

Assay: general procedure: Fmoc solid-phase peptide synthesis; Fmoc-Rink-MBHA resin (0.4 mmol/g); Oxyma/DIPCDI
Details: whole synthesis, analytical HPLC, Kromasil 100 C18, detection at 220 nm

| Substance | purity (crude or final not stated) [%] |
| --- | --- |
| c(K(CO-C3H7)KLKKFKKLQ) | 95 |
| c(K(CO-C3H7)KLKKHKKLQ) | 88 |
| c(K(CO-nC5H11)KLKKFKKLQ) | 99 |
| c(K(CO-nC5H11)KLKKHKKLQ) | 91 |
| c(KK(CO-C3H7)LKKFKKLQ) | 99 |
| c(KK(CO-C3H7)LKKHKKLQ) | 89 |
| c(KK(CO-nC5H11)LKKFKKLQ) | 92 |
| c(KK(CO-nC5H11)LKKHKKLQ) | 96 |
| c(KKLK(CO-nC5H11)KFKKLQ) | 99 |
| c(KKLKK(CO-C3H7)FKKLQ) | 96 |
| c(KKLKK(CO-C3H7)HKKLQ) | 88 |
| c(KKLKK(CO-C3H7)fKKLQ) | 97 |
| c(KKLKK(CO-C4H9)FKKLQ) | 97 |
| c(KKLKK(CO-C6H13)FKKLQ) | 91 |
| c(KKLKK(CO-C7H15)FKKLQ) | 87 |
| c(KKLKK(CO-C7H15)HKKLQ) | 87 |
| c(KKLKK(CO-C7H15)fKKLQ) | 86 |
| c(KKLKK(CO-C8H17)FKKLQ) | 86 |
| c(KKLKK(CO-C11H22OH)FKKLQ) | 82 |
| c(KKLKK(CO-C11H23)FKKLQ) | 83 |
| c(KKLKK(CO-C15H31)FKKLQ) | 85 |
| c(KKLKK(CO-isoC5H11)FKKLQ) | 87 |

| Substance | purity (crude or final not stated) [%] |
| --- | --- |
| c(KKLKK(CO-isoC5H11)HKKLQ) | 90 |
| c(KKLKK(CO-isoC5H11)fKKLQ) | 96 |
| c(KKLKK(CO-nC5H11)FKKLQ) | 91 |
| c(KKLKK(CO-nC5H11)HKKLQ) | 89 |
| c(KKLKK(CO-nC5H11)fKKLQ) | 99 |
| c(KKLKK(LK-CO-C3H7)HKKLQ) | 99 |
| c(KKLKK(LK-CO-C3H7)fKKLQ) | 97 |
| c(KKLKK(LK-CO-nC5H11)FKKLQ) | 98 |
| c(KKLKK(LK-CO-nC5H11)HKKLQ) | 91 |
| c(KKLKK(LK-CO-nC5H11)fKKLQ) | 92 |
| c(KKLKKFK(CO-nC5H11)KLQ) | 98 |
| c(KKLKKFKK(CO-nC5H11)LQ) | 99 |
| c(KKLKk(CO-C3H7)FKKLQ) | 99 |
| c(KKLKk(CO-C7H15)FKKLQ) | 99 |
| c(KKLKk(CO-isoC5H11)FKKLQ) | 95 |
| c(KKLKk(CO-nC5H11)FKKLQ) | 91 |
| c(KKLKk(LK-CO-C3H7)FKKLQ) | 97 |
| c(KKLKk(LK-CO-nC5H11)FKKLQ) | 95 |
| c(Kk(CO-C3H7)LKKFKKLQ) | 97 |
| c(Kk(CO-nC5H11)LKKFKKLQ) | 94 |
| c(k(CO-C3H7)KLKKFKKLQ) | 89 |
| c(k(CO-nC5H11)KLKKFKKLQ) | 97 |
